Experimental data from article PMC5261001.
No constants are given. Whether binding was seen depends on the method and setting. In cells and extracts the contact can be indirect. Some entries that bind do so weakly or less than the wild type. Tags and fused reporters may be left off the sequences shown. One block for each molecule: values may come before it.

Sequences of proteins named here, by UniProt entry; tags and fusion partners are left off.
UniProt P84022: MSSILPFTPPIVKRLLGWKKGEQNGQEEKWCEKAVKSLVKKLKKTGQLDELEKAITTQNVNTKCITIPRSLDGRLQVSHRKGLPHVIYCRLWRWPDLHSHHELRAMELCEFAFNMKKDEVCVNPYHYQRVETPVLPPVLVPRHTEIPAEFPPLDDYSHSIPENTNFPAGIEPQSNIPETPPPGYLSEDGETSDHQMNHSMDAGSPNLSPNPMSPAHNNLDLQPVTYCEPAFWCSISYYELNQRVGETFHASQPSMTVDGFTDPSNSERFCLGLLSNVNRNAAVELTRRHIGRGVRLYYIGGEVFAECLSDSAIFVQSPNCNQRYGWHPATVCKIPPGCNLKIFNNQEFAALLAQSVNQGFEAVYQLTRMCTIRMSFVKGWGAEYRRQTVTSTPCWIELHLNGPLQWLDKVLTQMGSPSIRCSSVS
UniProt Q15796: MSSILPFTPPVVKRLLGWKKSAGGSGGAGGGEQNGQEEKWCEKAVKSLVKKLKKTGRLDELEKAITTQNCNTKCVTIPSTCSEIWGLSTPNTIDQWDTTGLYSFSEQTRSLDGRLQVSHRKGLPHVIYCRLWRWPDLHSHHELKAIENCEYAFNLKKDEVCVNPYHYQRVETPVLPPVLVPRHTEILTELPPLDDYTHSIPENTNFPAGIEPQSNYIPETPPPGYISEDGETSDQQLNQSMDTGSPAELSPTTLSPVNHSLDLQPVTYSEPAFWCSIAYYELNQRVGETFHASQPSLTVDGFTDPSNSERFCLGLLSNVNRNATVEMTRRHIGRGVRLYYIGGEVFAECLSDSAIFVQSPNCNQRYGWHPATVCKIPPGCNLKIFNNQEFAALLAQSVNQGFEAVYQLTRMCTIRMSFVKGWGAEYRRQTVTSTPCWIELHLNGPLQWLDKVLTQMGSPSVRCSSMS

Experiments:
Flag-Myc-tagged Bcl-3 = target: T1, Flag-Myc-tagged Bcl-3 (UniProt P20749); experiment: co-IP; tagged Bcl-3 and tagged Smad3 constructs co-transfected in HEK293T; lysis buffer 20 mM Hepes pH 7.4, 0.5% Triton-X-100, 150 mM NaCl; immunoprecipitated with tag antibodies (Flag, HA or Myc) on protein A-Sepharose overnight at 4 °C; immunoblot
T1 sequence: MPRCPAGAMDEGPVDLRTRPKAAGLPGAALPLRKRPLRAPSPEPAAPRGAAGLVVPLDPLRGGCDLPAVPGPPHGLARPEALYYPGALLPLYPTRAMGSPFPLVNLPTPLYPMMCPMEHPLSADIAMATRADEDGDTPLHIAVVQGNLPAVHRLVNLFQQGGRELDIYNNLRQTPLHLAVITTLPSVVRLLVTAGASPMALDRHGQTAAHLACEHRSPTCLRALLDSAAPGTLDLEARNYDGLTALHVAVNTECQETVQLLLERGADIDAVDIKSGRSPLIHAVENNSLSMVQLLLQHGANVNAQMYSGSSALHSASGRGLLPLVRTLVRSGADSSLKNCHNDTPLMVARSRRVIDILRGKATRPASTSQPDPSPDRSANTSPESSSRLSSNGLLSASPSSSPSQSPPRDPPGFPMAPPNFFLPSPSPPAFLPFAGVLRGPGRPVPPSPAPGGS

[1] = target: T2, hemagglutinin-tagged-Bcl-3 (UniProt P20749); experiment: co-IP; HA-Bcl-3 expressed in HEK293T, lysed 48 h after transfection; lysates immunoprecipitated with HA antibodies; endogenous partner detected by immunoblot
T2 sequence: T1 sequence

Flag-tagged Smad3 = Flag-tagged Smad3 (UniProt P84022); experiment: co-IP; tagged Bcl-3 and tagged Smad3 constructs co-transfected in HEK293T; lysis buffer 20 mM Hepes pH 7.4, 0.5% Triton-X-100, 150 mM NaCl; immunoprecipitated with tag antibodies (Flag, HA or Myc) on protein A-Sepharose overnight at 4 °C; immunoblot

binding (Flag-Myc-tagged Bcl-3): binds
Molecule: Flag-tagged Smad3 (from UniProt P84022 1-425)

binding [1]: no binding
Molecule: endogenous Smad2 (from UniProt Q15796 1-467)

binding (Flag-tagged Smad3): binds
B1: hemagglutinin-tagged-Bcl-3 (protein, UniProt P20749 1-454)
chain: T1 sequence
